No constants are given. Whether binding was seen depends on the method and setting.
What was measured:
[1] = biological target: recombinant wt-TaqII protein (TaqII REase-MTase expressed from the wt-taqIIRM gene) (Thermus aquaticus) (UniProt Q8GJ86); experiment: SEC; analytical molecular sieving in a buffer close to physiological conditions containing 3 mM MgCl2, in the absence of DNA; both purified
[2] = biological target: recombinant syn-TaqII protein (TaqII REase-MTase expressed from the synthetic codon-optimized syn-taqIIRM gene) (Thermus aquaticus) (UniProt Q8GJ86); experiment: as above

Row | binding [1] | binding [2] | Binder
1 | no binding | – | recombinant wt-TaqII protein (TaqII REase-MTase expressed from the wt-taqIIRM gene) (enzyme, UniProt Q8GJ86 1-1105) MTGDTWVLSIRKYLSELRRVQALAQGEAEPEAQLIPLVKGLLEETLGVRVVIEARPKGDTKVGKPDLGVKHQGLLVGFVELKAPGKGADPERYRGHDREQWERFRQLPNLVYTDGRDFALFREGQKVREVRLASEGDAEALRELFLDFLNWRPLVPRNPQELARFLAPLARFLREAVLEEVRENPNGELARLREEWRKNLLPEGDERVFADAYAQLITYGFLLAAALDSGEEPLYLERALELLEGRYGLLMEALFVANHPRLLAEIRPAYDLLRRALRAVDPSVFRVQGVDPWLYFYEDFLQAYDPDLRKDMGVYYTPVPVVRAMVRLVDEALKEGFGLAEGLAHEKVTVLDPAMGTGTFLLATLERALANMASLYGRGYRGQYAKEVASRLHGIELMVGPYAVAQLRLSQAIQGEGGSLPEEGLNLYLADTLEAPEAPPLEQVFFYERLAEERKRAAELKRDKPILVVLGNPPYDRVEGESQEERERKGGWVLRGPREPYPLMEDFLRPAREADLGIHLKNLYNLYVYFWRFALWKVFEQDPERGGVLCFITPSSYLQGPAFAGMREHVRRVADRVYILDLGGEGRGAVREENVFNIQTPVAIALVVRRGPQDSQTPARVFYHRLAPTTREEKLKELEELPPLKDIPFREAPRDWQAPFVPEVGGEWTRWPKLTDLFPWQHSGVEFKRTWPIGPTEEVLKKRWEILLKAPPGERRALFRETGDRLLVKSHRAIFSSKPLPPIATLGPGNPPEAIVRYGYRSFDRAWAIADGRVCSRPRPSLWQTWSERQVYLTSLLTTPLGRGPALVATAYLPDLHHFSSRGGKDIIPLFRDREGREPNLTRGLLKLLEEAYGFPVSPEDFAAYVYALLAHPAYTERFAEELRVPGPRVPLTKDPSLFREGAELGAYLLWLHTYGERYAEGRSWPPKGRARWAKPPSAYPEGHSYDPETRILHVGDGEVEDVAPEVYGFEVSGFLPVESWLGFRQRNRRGRRSSPLDDVVPSEWPADLGRELLELLWVLEKTLEIYPEQKELLQKVLEGPLFTVDELPTPTPEQREPPGGEEEKPQEAEAVGEEEGENGAEHVVQPRLLSLREASRDGVYGNQP
2 | – | no binding | recombinant syn-TaqII protein (TaqII REase-MTase expressed from the synthetic codon-optimized syn-taqIIRM gene) (enzyme, UniProt Q8GJ86 1-1105) MTGDTWVLSIRKYLSELRRVQALAQGEAEPEAQLIPLVKGLLEETLGVRVVIEARPKGDTKVGKPDLGVKHQGLLVGFVELKAPGKGADPERYRGHDREQWERFRQLPNLVYTDGRDFALFREGQKVREVRLASEGDAEALRELFLDFLNWRPLVPRNPQELARFLAPLARFLREAVLEEVRENPNGELARLREEWRKNLLPEGDERVFADAYAQLITYGFLLAAALDSGEEPLYLERALELLEGRYGLLMEALFVANHPRLLAEIRPAYDLLRRALRAVDPSVFRVQGVDPWLYFYEDFLQAYDPDLRKDMGVYYTPVPVVRAMVRLVDEALKEGFGLAEGLAHEKVTVLDPAMGTGTFLLATLERALANMASLYGRGYRGQYAKEVASRLHGIELMVGPYAVAQLRLSQAIQGEGGSLPEEGLNLYLADTLEAPEAPPLEQVFFYERLAEERKRAAELKRDKPILVVLGNPPYDRVEGESQEERERKGGWVLRGPREPYPLMEDFLRPAREADLGIHLKNLYNLYVYFWRFALWKVFEQDPERGGVLCFITPSSYLQGPAFAGMREHVRRVADRVYILDLGGEGRGAVREENVFNIQTPVAIALVVRRGPQDSQTPARVFYHRLAPTTREEKLKELEELPPLKDIPFREAPRDWQAPFVPEVGGEWTRWPKLTDLFPWQHSGVEFKRTWPIGPTEEVLKKRWEILLKAPPGERRALFRETGDRLLVKSHRAIFSSKPLPPIATLGPGNPPEAIVRYGYRSFDRAWAIADGRVCSRPRPSLWQTWSERQVYLTSLLTTPLGRGPALVATAYLPDLHHFSSRGGKDIIPLFRDREGREPNLTRGLLKLLEEAYGFPVSPEDFAAYVYALLAHPAYTERFAEELRVPGPRVPLTKDPSLFREGAELGAYLLWLHTYGERYAEGRSWPPKGRARWAKPPSAYPEGHSYDPETRILHVGDGEVEDVAPEVYGFEVSGFLPVESWLGFRQRNRRGRRSSPLDDVVPSEWPADLGRELLELLWVLEKTLEIYPEQKELLQKVLEGPLFTVDELPTPTPEQREPPGGEEEKPQEAEAVGEEEGENGAEHVVQPRLLSLREASRDGVYGNQP
